We go through one molecule from patent US4378358A, “Benzothiazinopyrazoles having pharmacological activity” (Mediolanum Farmaceutici s.r.l., priority 1980, dated 1983).

Series [1] in a line: in vivo. To be noted: rat, po, 5 days, female rats, read-out: % of dead animals. From the text:
Five days subacute toxicity in rats per os
Animals: 5 female rats for each group, average body weight: 150g.

The test system of series [2] is Mouse. To be noted: per os, literature value (footnotes a, b); cited from earlier work.

Read-outs that look alike come from different tables or passages of the source.

Regarding `COc1ccc2cc([C@H](C)C(=O)O)ccc2c1` [Naproxen, naproxen, reference compound], the mortality at 120 h was determined as 0% in series [1] (50 mg/kg/day, 50 mg/kg/die per os) and 20% in series [1] (100 mg/kg/day, 100 mg/kg/die per os). In series [2], the “LD 50 (Litchfield and Wilcoxon)” value was 1234 mg/kg.
